Results on 1 compound are retold here after PubChem BioAssay AID226 (DTP/NCI, 2004).

The subject of this assay is B6C3F1 mice, intracerebral ependymoblastoma, median survival T/C. The assay is described as follows: NCI In Vivo Anticancer Drug Screen. Data for tumor model Ependymoblastoma (intracerebral) in B6C3F1 mice. The note with it: T/C endpoint: median survival time, vehicle: saline, higher T/C = longer survival. How it is done: The antitumor activity of compounds was measured in mice bearing transplantable tumors. Survival or tumor size were measured and the results are expressed as the measurement made in the treated group (T) divided by the measurement made in the vehicle treated control group (C). The tumor model used in this assay is Ependymoblastoma (intracerebral) in B6C3F1 mice

The list shows only some results of the screen, not a fair sample: it gathers some chemical classes. Other doses and runs of a compound may be missing. T/C is the treated group as % of the vehicle group. Where survival is the endpoint, this PubChem deposit counts one and a half times the control or more as active, and values a quarter to a half above the control carry no call in these data; other NCI protocols may use other cut-offs. Schedule codes are those of the source, read here as Q, the interval in days (D) or hours (H), X, the number of doses. Some T/C values are marked as having no survivor count here; that says nothing about deaths at the dose. Some entries were tested several times; their values stand side by side, smallest first.

Regarding `CC(=O)OCC12CCC(C)=CC1OC1C(O)C(OC(C)=O)C2(C)C12CO2` (configuration not stated), the T/C is 103 [survivor count not shown] and 105 % of control [survivor count not shown] (dose: 0.5 mg/kg/injection, schedule: Q01DX005 (ip)); 104 [survivor count not shown] and 107 % of control [survivor count not shown] (dose: 1.0 mg/kg/injection, schedule: Q01DX005 (ip)); 103 [survivor count not shown], 104 [survivor count not shown], 106 % of control [survivor count not shown] (dose: 2.0 mg/kg/injection, schedule: Q01DX005 (ip)); 100 [survivor count not shown], 101 [survivor count not shown], 107 % of control [survivor count not shown] (dose: 4.0 mg/kg/injection, schedule: Q01DX001 (ip)); 100 [survivor count not shown] and 110 % of control [survivor count not shown] (dose: 4.0 mg/kg/injection, schedule: Q01DX005 (ip)); 91 [survivor count not shown], 104 [survivor count not shown], 112 % of control [survivor count not shown] (dose: 8.0 mg/kg/injection, schedule: Q01DX001 (ip)). The T/C (dose: 16.0 mg/kg/injection, schedule: Q01DX001 (ip)) is 87 [survivor count not shown], 95 [survivor count not shown], 105 % of control [survivor count not shown].
